# The supplement of paper PMC12067093, “Discovery and optimisation of a covalent ligand for TRIM25 and its application to targeted protein ubiquitination” (Chemical Science, 2025)
# The list shows a part of the results.
# Compound: CC1Cc2ccccc2N1C(=O)C1CCCN(C1)C(=O)CCl (mixture of isomers) [TRIM25 ligand 11 (diastereomer mixture)]
# Assay: probe-labelled cysteine peptide fold change vs DMSO (competition) (log2 fold change); higher = less target engagement (more negative = stronger competition)
# Settings: THP-1, incubation time: 4 h
# 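Further: competitive chemoproteomic profiling in live THP-1 cells with an iodoacetamide desthiobiotin (IA-DTB) probe, comparing probe-labelled peptide intensities in compound-treated cells against DMSO-treated controls.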
target,measurement,setting,value
FLII_Q13045_337_LTNLEEFMAANNNLELVPESLCR (UniProt Q13045),probe-labelled cysteine peptide fold change,10 µM,0.177
same,probe-labelled cysteine peptide fold change,50 µM,-0.371
FLII_Q13045_119_NSGVPDDIFKLDDLSVLDLSHNQLTECPR (UniProt Q13045),probe-labelled cysteine peptide fold change,10 µM,0.00979
same,probe-labelled cysteine peptide fold change,50 µM,-0.198
FXR2_P51116_151_VTMAVPEDLREACSNENVHK (UniProt P51116),probe-labelled cysteine peptide fold change,10 µM,-0.0855
same,probe-labelled cysteine peptide fold change,50 µM,-0.0345
FH_P07954_333_FEALAAHDALVELSGAMNTTACSLMK (UniProt P07954),probe-labelled cysteine peptide fold change,10 µM,0.0327
same,probe-labelled cysteine peptide fold change,50 µM,0.166
GABPA_Q06546_338_DCISWVGDEGEFK (UniProt Q06546),probe-labelled cysteine peptide fold change,10 µM,0.0383
same,probe-labelled cysteine peptide fold change,50 µM,-0.0188
FKBP1A_P62942_23_GQTCVVHYTGMLEDGK (UniProt P62942),probe-labelled cysteine peptide fold change,10 µM,-0.059
same,probe-labelled cysteine peptide fold change,50 µM,-0.058
FUBP3_Q96I24_109_IQAESGCK (UniProt Q96I24),probe-labelled cysteine peptide fold change,10 µM,0.00832
same,probe-labelled cysteine peptide fold change,50 µM,0.192
FSCN1_Q16658_19_TANGTAEAVQIQFGLINCGNK (UniProt Q16658),probe-labelled cysteine peptide fold change,10 µM,0.0448
same,probe-labelled cysteine peptide fold change,50 µM,0.102
FTSJ3_Q8IY81_52_ALLDLCAAPGGWLQVAAK (UniProt Q8IY81),probe-labelled cysteine peptide fold change,10 µM,-0.282
same,probe-labelled cysteine peptide fold change,50 µM,-0.0549
FZD6_O60353_123_WPEELECDR (UniProt O60353),probe-labelled cysteine peptide fold change,10 µM,-0.074
same,probe-labelled cysteine peptide fold change,50 µM,0.0918
GABPB1_Q06547_331_QCIEIIENR (UniProt Q06547),probe-labelled cysteine peptide fold change,10 µM,0.0442
same,probe-labelled cysteine peptide fold change,50 µM,-0.164
FLNB_O75369_2556_AGSNMLLIGVHGPTTPCEEVSMK (UniProt O75369),probe-labelled cysteine peptide fold change,10 µM,0.0188
same,probe-labelled cysteine peptide fold change,50 µM,-0.189
FN1_P02751_401_YSFCTDHTVLVQTR (UniProt P02751),probe-labelled cysteine peptide fold change,10 µM,0.107
same,probe-labelled cysteine peptide fold change,50 µM,-0.0413
FHL1_Q13642_150+153_GEDFYCVTCHETK (UniProt Q13642),probe-labelled cysteine peptide fold change,10 µM,-0.133
same,probe-labelled cysteine peptide fold change,50 µM,-0.0337
FLNB_O75369_706_MDGTYACSYTPVK (UniProt O75369),probe-labelled cysteine peptide fold change,10 µM,0.024
same,probe-labelled cysteine peptide fold change,50 µM,-0.214
FNBP4_Q8N3X1_603_GWSCHWDR (UniProt Q8N3X1),probe-labelled cysteine peptide fold change,10 µM,0.209
same,probe-labelled cysteine peptide fold change,50 µM,0.026
FKBP5_Q13451_107_GEICHLLCKPEYAYGSAGSLPK (UniProt Q13451),probe-labelled cysteine peptide fold change,10 µM,-0.00489
same,probe-labelled cysteine peptide fold change,50 µM,0.232
FLII_Q13045_1257+1265_CFHAWSAFCK (UniProt Q13045),probe-labelled cysteine peptide fold change,10 µM,0.0143
same,probe-labelled cysteine peptide fold change,50 µM,-0.116
GABPA_Q06546_421_LVTECEQK (UniProt Q06546),probe-labelled cysteine peptide fold change,10 µM,0.0361
same,probe-labelled cysteine peptide fold change,50 µM,0.147
FLNB_O75369_991_KVVPCLVTPVTGR (UniProt O75369),probe-labelled cysteine peptide fold change,10 µM,-0.0645
same,probe-labelled cysteine peptide fold change,50 µM,-0.0535
FHL3_Q13643_251_HWHHNCFSCAR (UniProt Q13643),probe-labelled cysteine peptide fold change,10 µM,0.0923
same,probe-labelled cysteine peptide fold change,50 µM,0.139
FSCN1_Q16658_80_YLAADKDGNVTCER (UniProt Q16658),probe-labelled cysteine peptide fold change,10 µM,-0.346
same,probe-labelled cysteine peptide fold change,50 µM,-0.134
GABPA_Q06546_61_LQCSLDAHEICLQDIQLDPER (UniProt Q06546),probe-labelled cysteine peptide fold change,10 µM,-0.0937
same,probe-labelled cysteine peptide fold change,50 µM,-0.107
FTSJ3_Q8IY81_294_ASEIMVDDEELAQHPATTEDIRVCCQDIR (UniProt Q8IY81),probe-labelled cysteine peptide fold change,10 µM,0.186
same,probe-labelled cysteine peptide fold change,50 µM,0.257
FYCO1_Q9BQS8_709+719_EGECQQLREEVEQCQQLAEAR (UniProt Q9BQS8),probe-labelled cysteine peptide fold change,10 µM,-0.293
same,probe-labelled cysteine peptide fold change,50 µM,-0.236
G6PD_P11413_13_TQVCGILR (UniProt P11413),probe-labelled cysteine peptide fold change,10 µM,0.333
same,probe-labelled cysteine peptide fold change,50 µM,0.145
FLNB_O75369_2501_SSTETCYSAIPK (UniProt O75369),probe-labelled cysteine peptide fold change,10 µM,-0.0551
same,probe-labelled cysteine peptide fold change,50 µM,-0.0775
FLII_Q13045_808_LGQELCGMLHRPR (UniProt Q13045),probe-labelled cysteine peptide fold change,10 µM,-0.202
same,probe-labelled cysteine peptide fold change,50 µM,-0.125
GADD45GIP1_Q8TAE8_124_EQHIAECMAK (UniProt Q8TAE8),probe-labelled cysteine peptide fold change,10 µM,0.324
same,probe-labelled cysteine peptide fold change,50 µM,0.377
FLNB_O75369_1952_DEPCLLK (UniProt O75369),probe-labelled cysteine peptide fold change,10 µM,0.159
same,probe-labelled cysteine peptide fold change,50 µM,0.216
FPGS_Q05932_315_SNAALALQLAHCWLQR (UniProt Q05932),probe-labelled cysteine peptide fold change,10 µM,-0.152
same,probe-labelled cysteine peptide fold change,50 µM,-0.0338
FHL1_Q13642-1_255_CSVNLANKR (UniProt Q13642),probe-labelled cysteine peptide fold change,10 µM,-0.0465
same,probe-labelled cysteine peptide fold change,50 µM,0.0327
FGD3_Q5JSP0_184_RLHLLDQVFCTR (UniProt Q5JSP0),probe-labelled cysteine peptide fold change,10 µM,-0.0134
same,probe-labelled cysteine peptide fold change,50 µM,0.089
FUS_P35637_444_NECNQCK (UniProt P35637),probe-labelled cysteine peptide fold change,10 µM,-0.1
same,probe-labelled cysteine peptide fold change,50 µM,-0.237
FLII_Q13045_560_KACSAIHAVNLR (UniProt Q13045),probe-labelled cysteine peptide fold change,10 µM,-0.37
same,probe-labelled cysteine peptide fold change,50 µM,-0.31
FNBP1_Q96RU3_130_AQQHIETCWK (UniProt Q96RU3),probe-labelled cysteine peptide fold change,10 µM,-0.0634
same,probe-labelled cysteine peptide fold change,50 µM,-0.014
FGD3_Q5JSP0_655_TIPLPSCK (UniProt Q5JSP0),probe-labelled cysteine peptide fold change,10 µM,-0.133
same,probe-labelled cysteine peptide fold change,50 µM,0.104
FN1_P02751_461_FGFCPMAAHEEICTTNEGVMYR (UniProt P02751),probe-labelled cysteine peptide fold change,10 µM,0.0257
same,probe-labelled cysteine peptide fold change,50 µM,0.00918
FRA10AC1_Q70Z53_175_GQFFCGNK (UniProt Q70Z53),probe-labelled cysteine peptide fold change,10 µM,0.108
same,probe-labelled cysteine peptide fold change,50 µM,0.0338
FLAD1_Q8NFF5_338_LTLDSEEEGPLEECLAYLTAR (UniProt Q8NFF5),probe-labelled cysteine peptide fold change,10 µM,0.0204
same,probe-labelled cysteine peptide fold change,50 µM,0.352
FUBP1_Q96AE4_332_CQHAAEIITDLLR (UniProt Q96AE4),probe-labelled cysteine peptide fold change,10 µM,-0.0805
same,probe-labelled cysteine peptide fold change,50 µM,0.122
FGG_P02679_35_DNCCILDER (UniProt P02679),probe-labelled cysteine peptide fold change,10 µM,0.542
same,probe-labelled cysteine peptide fold change,50 µM,0.22
FLAD1_Q8NFF5_409_DCTALLHLFHAAVQR (UniProt Q8NFF5),probe-labelled cysteine peptide fold change,10 µM,-0.000326
same,probe-labelled cysteine peptide fold change,50 µM,0.348
FHL1_Q13642_7+10_FDCHYCR (UniProt Q13642),probe-labelled cysteine peptide fold change,10 µM,0.144
same,probe-labelled cysteine peptide fold change,50 µM,0.119
FHOD1_Q9Y613_164_DLVPEFVHSEGLSCLIR (UniProt Q9Y613),probe-labelled cysteine peptide fold change,10 µM,0.152
same,probe-labelled cysteine peptide fold change,50 µM,0.203
FMNL3_Q8IVF7_469_CHLEPNVR (UniProt Q8IVF7),probe-labelled cysteine peptide fold change,10 µM,0.0632
same,probe-labelled cysteine peptide fold change,50 µM,0.114
FNBP4_Q8N3X1_673_TGTDSNSTESSETSTGSLCK (UniProt Q8N3X1),probe-labelled cysteine peptide fold change,10 µM,0.228
same,probe-labelled cysteine peptide fold change,50 µM,-0.0467
FTSJ3_Q8IY81_293_VCCQDIR (UniProt Q8IY81),probe-labelled cysteine peptide fold change,10 µM,0.143
same,probe-labelled cysteine peptide fold change,50 µM,0.0618
FLNB_O75369_1326_VAVTEGCQPSR (UniProt O75369),probe-labelled cysteine peptide fold change,10 µM,-0.0217
same,probe-labelled cysteine peptide fold change,50 µM,-0.0287
FKBP2_P26885_42_VDHCPIK (UniProt P26885),probe-labelled cysteine peptide fold change,10 µM,-0.198
same,probe-labelled cysteine peptide fold change,50 µM,-0.254
FLII_Q13045_982_EGEEATAEAEEKQPEEDFQCIVYFWQGR (UniProt Q13045),probe-labelled cysteine peptide fold change,10 µM,0.157
same,probe-labelled cysteine peptide fold change,50 µM,-0.0259
FIG4_Q92562_839_NSQQPCSR (UniProt Q92562),probe-labelled cysteine peptide fold change,10 µM,0.0248
same,probe-labelled cysteine peptide fold change,50 µM,-0.4
FTH1_P02794_91+103_KPDCDDWESGLNAMECALHLEK (UniProt P02794),probe-labelled cysteine peptide fold change,10 µM,-0.0941
same,probe-labelled cysteine peptide fold change,50 µM,0.0264
FXR1_P51114_129_CTVDVPEDLR (UniProt P51114),probe-labelled cysteine peptide fold change,10 µM,0.181
same,probe-labelled cysteine peptide fold change,50 µM,0.0786
FRY_Q5TBA9_2174_IAQVCLEEK (UniProt Q5TBA9),probe-labelled cysteine peptide fold change,10 µM,0.134
same,probe-labelled cysteine peptide fold change,50 µM,-0.0684
FOCAD_Q5VW36_1559_CLLEMTDDDANR (UniProt Q5VW36),probe-labelled cysteine peptide fold change,10 µM,-0.0541
same,probe-labelled cysteine peptide fold change,50 µM,0.112
FNDC3A_Q9Y2H6_625_EHLCDR (UniProt Q9Y2H6),probe-labelled cysteine peptide fold change,10 µM,0.0514
same,probe-labelled cysteine peptide fold change,50 µM,0.000825
FOXP1_Q9H334_317_WPGCEAVCEDFQSFLK (UniProt Q9H334),probe-labelled cysteine peptide fold change,10 µM,0.197
same,probe-labelled cysteine peptide fold change,50 µM,-0.0107
FLII_Q13045_933_LPEEEFGHFYTQDCYVFLCR (UniProt Q13045),probe-labelled cysteine peptide fold change,10 µM,0.114
same,probe-labelled cysteine peptide fold change,50 µM,0.154
FUCA1_P04066_296_FKPQSLPDHKWEMCTSIDK (UniProt P04066),probe-labelled cysteine peptide fold change,10 µM,0.00925
same,probe-labelled cysteine peptide fold change,50 µM,-0.32

# Retrieved one by one from the entries so far (6):
target,measurement,setting,value
FLNB_O75369_2501_SSTETCYSAIPK (UniProt O75369),probe-labelled cysteine peptide fold change,50 µM,-0.0775
FH_P07954_333_FEALAAHDALVELSGAMNTTACSLMK (UniProt P07954),probe-labelled cysteine peptide fold change,10 µM,0.0327
FHL1_Q13642_7+10_FDCHYCR (UniProt Q13642),probe-labelled cysteine peptide fold change,50 µM,0.119
FLAD1_Q8NFF5_409_DCTALLHLFHAAVQR (UniProt Q8NFF5),probe-labelled cysteine peptide fold change,50 µM,0.348
FTSJ3_Q8IY81_293_VCCQDIR (UniProt Q8IY81),probe-labelled cysteine peptide fold change,50 µM,0.0618
FLII_Q13045_933_LPEEEFGHFYTQDCYVFLCR (UniProt Q13045),probe-labelled cysteine peptide fold change,50 µM,0.154
